PMC10589297
No constants are given. Whether binding was seen depends on the method and setting. Binding seen in cells or lysates may run through a third protein. Some binding calls cover weakened binding; strength is not graded here.

Molecular target: T1, CCCTC binding factor (Ctcf) (mouse (endogenous in E11.5 limb bud cells)) (UniProt Q61164)
T1 sequence: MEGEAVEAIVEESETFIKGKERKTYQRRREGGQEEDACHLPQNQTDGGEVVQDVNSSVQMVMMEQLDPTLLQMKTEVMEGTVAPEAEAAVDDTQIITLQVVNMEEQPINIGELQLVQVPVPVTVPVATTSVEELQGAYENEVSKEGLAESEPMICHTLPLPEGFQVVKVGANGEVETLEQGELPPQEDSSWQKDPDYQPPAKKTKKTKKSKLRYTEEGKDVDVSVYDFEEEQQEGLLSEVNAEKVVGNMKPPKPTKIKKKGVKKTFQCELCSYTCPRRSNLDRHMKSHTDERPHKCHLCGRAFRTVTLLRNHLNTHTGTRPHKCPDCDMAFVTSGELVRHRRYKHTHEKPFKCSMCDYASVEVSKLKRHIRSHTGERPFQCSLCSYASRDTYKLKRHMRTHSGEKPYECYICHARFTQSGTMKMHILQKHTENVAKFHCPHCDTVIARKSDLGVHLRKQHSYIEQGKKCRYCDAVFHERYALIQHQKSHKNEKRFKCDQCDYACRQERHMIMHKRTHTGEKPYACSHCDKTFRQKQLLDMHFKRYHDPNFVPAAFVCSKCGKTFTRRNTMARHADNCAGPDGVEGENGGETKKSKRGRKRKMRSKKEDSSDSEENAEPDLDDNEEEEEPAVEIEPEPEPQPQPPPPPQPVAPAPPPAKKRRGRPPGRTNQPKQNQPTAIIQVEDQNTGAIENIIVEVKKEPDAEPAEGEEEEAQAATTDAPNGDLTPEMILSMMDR
Assay: co-IP; endogenous proteins from E11.5 WT limb bud cells; lysate incubated with anti-hnRNPK or anti-CTCF and Protein G beads; beads incubated in wash buffer with PBS, DNase I, RNase A or both for 1.5 h on ice; western blot

- binding: binds
Substance: heterogeneous nuclear ribonucleoprotein K (Hnrnpk) (from UniProt P61979-2 1-464)
